Structures can show the parent of a compound that is named as a salt. The list shows a part of the results. Single values are uncertain here, since repeats match poorly.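 Human embryonic kidney cells were transiently transfected with a plasmid bearing a Renilla luciferase gene under the HSV-TK promoter. This first-round screen tests roughly ten thousand compounds for ones that increase reporter output.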

In the assay the test system is HEK 293FT. The experiment in a line: log relative Renilla luciferase luminescence (reporter expression vs reference, reference not stated) (log (base not stated)); higher = higher recombinant reporter expression. To be noted: 10 µM; time after transfection 48 h.
`O=C(O)c1cc(=O)[nH]c(=O)[nH]1` [orotic acid]: the log is -1.34.
For `COc1ccc([C@@H](C)C(=O)c2ccc(O)cc2O)cc1` [angolensin (r)], the log amounted to 0.127.
Turning to `NC(=O)NCCC[C@H](N)C(=O)O` [citrulline], the log came to 0.158.
On to `O=c1oc2c(O)c(O)cc3c(=O)oc4c(O)c(O)cc1c4c23` [ellagic acid], for which the log was -0.00801.
Turning to `O=C1NS(=O)(=O)c2ccccc21` [saccharin], the log is -0.19.
As for `CC(=O)CC(c1ccccc1)c1c(O)c2ccccc2oc1=O` (configuration not stated) [warfarin], the log turned out to be 0.112.
With `CCN(CC)CC(=O)Nc1c(C)cccc1C` [lidocaine hydrochloride] the figure was -0.0915; with `CC(=O)OCC(=O)[C@@]12OC(C)(C)O[C@@H]1C[C@H]1[C@@H]3C[C@H](F)C4=CC(=O)C=C[C@]4(C)[C@@]3(F)[C@@H](O)C[C@@]12C` [fluocinonide], 0.138; with `c1ccc2c(CC3=NCCN3)cccc2c1` [naphazoline hydrochloride], -0.00978.
Consider `OCc1ccccc1O[C@@H]1O[C@H](CO)[C@@H](O)[C@H](O)[C@H]1O` [salicin], for which the log was determined as 0.0553.
With `CN1C(CCl)Nc2cc(Cl)c(S(N)(=O)=O)cc2S1(=O)=O` (configuration not stated) [methyclothiazide] the figure was -0.0385; with `C=CC1=C(C(=O)O)N2C(=O)[C@@H](NC(=O)/C(=N\O)c3csc(N)n3)[C@H]2SC1` [cefdinir], 0.00695.
With `Cc1cn([C@H]2C=C[C@@H](CO)O2)c(=O)[nH]c1=O` [stavudine] the figure was 0.129; with `CC(=O)NS(=O)(=O)c1ccc(N)cc1` [sulfacetamide], 0.0299; with `C=C1CC[C@@H]2[C@](C)(CO)[C@H](O)CC[C@@]2(C)[C@@H]1C/C=C1/C(=O)OC[C@H]1O` [andrographolide], 0.0243.
Turning to `Oc1ccc([C@H]2Oc3cc(O)cc(O)c3C[C@H]2O)cc1` [epiafzelechin (2r,3r)(-)], the log is 0.184.
Then `COc1cccc2c1C(=O)c1c(O)c3c(c(O)c1C2=O)C[C@@](O)(C(C)=O)C[C@@H]3O[C@H]1C[C@H](N)[C@H](O)[C@H](C)O1` [daunorubicin], with -1.36; and `O=C(/C=C/c1ccc(O)cc1)c1ccc(O)cc1O` [isoliquiritigenin], with -0.301; and `Cc1c(NC(=O)c2cccnc2)c(=O)n(-c2ccccc2)n1C` [nifenazone], with 0.0585.
Then `CS(=O)(=O)OCCCCOS(C)(=O)=O` [busulfan], with -0.0982.
Then `OCc1c[nH]c2ccccc12` [indole-3-carbinol], with 0.126; and `COc1ccc(-c2coc3c(O)c(O)c(OC)cc3c2=O)cc1` [dipteryxin], with 0.142.
On to `CC(O)Cn1cnc2c1c(=O)n(C)c(=O)n2C` (configuration not stated) [proxyphylline], for which the log was 0.0233.
With `N[C@@H](Cc1c[nH]c2ccccc12)C(=O)O` [tryptophan] the figure was -0.0373.
Then `O=C(OOC(=O)c1ccccc1)c1ccccc1` [benzoyl peroxide], with -0.189.
With `CCC1(C)OC(=O)N(C)C1=O` (configuration not stated) [paramethadione] the figure was -0.0757; with `NC(=O)CCCCC1CCSS1` (configuration not stated) [lipoamide], 0.0757; with `C=C(C)[C@H]1CC=C(C)CC1` [d-limonene], 0.0954.
On to `NS(=O)(=O)c1cc2c(cc1C(F)(F)F)NCNS2(=O)=O` [hydroflumethiazide], for which the log came out at 0.106.
Consider `CN1C(=O)CC[C@H]1c1cccnc1` [cotinine], for which the log was -0.376.
As to `CC[C@@H]1C(=O)OC[C@@H]1Cc1cncn1C` [pilocarpine nitrate], the log was determined as 0.0824.
For `NC[C@@H]1O[C@@H](O[C@H]2[C@H](O)[C@@H](O[C@H]3O[C@H](CO)[C@@H](O)[C@H](N)[C@H]3O)[C@H](N)C[C@@H]2N)[C@@H](O)[C@H](O)[C@H]1O` [kanamycin a sulfate], the log is 0.00732.
Then `CC1CC(OC(=O)c2ccccc2O)CC(C)(C)C1` (configuration not stated) [homosalate], with 0.097; and `CC(C)c1ccc2c(c1)CCC1[C@](C)(CN)CCC[C@]21C` (some centres not stated) [18-aminoabieta-8,11,13-triene sulfate], with 0.154; and `C[C@H](CCC(=O)O)[C@H]1CC[C@H]2[C@@H]3[C@@H](O)C[C@@H]4C[C@H](O)CC[C@]4(C)[C@H]3CC[C@]12C` [ursodiol], with -0.0153.
With `O=C(CCCN1CCN(c2ccccn2)CC1)c1ccc(F)cc1` [azaperone] the figure was 0.0463; with `CN1CCC(=C2c3ccccc3Sc3ccccc32)CC1` [pimethixene maleate], 0.0689.
For `Nc1c2ccccc2nc2ccccc12` [aminacrine], the log was -0.125.
With `COC1=CC(=O)C(C(=O)c2ccccc2)=CC1=O` [2-benzoyl-5-methoxybenzoquinone] the figure was -0.114; with `N[C@@H](Cc1cc(I)c(Oc2ccc(O)c(I)c2)c(I)c1)C(=O)O` [liothyronine], 0.195; with `N[C@@H](Cc1cc(I)c(Oc2ccc(O)c(I)c2)c(I)c1)C(=O)O` [liothyronine (l- isomer) sodium], -0.0372.
For `C(=C\c1ccccc1)/CN1CCN(C(c2ccccc2)c2ccccc2)CC1` [cinnarazine], the log was -0.0614.
With `Cc1c(-c2cnccn2)ssc1=S` [oltipraz] the figure was -0.0484; with `C[C@@H]1C[C@H]2[C@@H]3CCC4=CC(=O)C=C[C@]4(C)[C@@]3(F)[C@@H](O)C[C@]2(C)[C@@]1(O)C(=O)COP(=O)(O)O` [dexamethasone sodium phosphate], -0.182.
With `CCN(CC)CCNC(C(=O)OCCC(C)C)c1ccccc1` (configuration not stated) [camylofine dihydrochloride] the figure was 0.0552; with `C[C@]12CC[C@@H]3c4ccc(OC(=O)c5ccccc5)cc4CC[C@H]3[C@@H]1CC[C@@H]2O` [estradiol benzoate], -0.038.
Regarding `CN1CCN(C(c2ccccc2)c2ccccc2)CC1` [cyclizine], the log worked out at 0.00792.
Then `OCCN(CCO)c1nc(N2CCCCC2)c2nc(N(CCO)CCO)nc(N3CCCCC3)c2n1` [dipyridamole], with -0.216; and `O=C(O)c1ccccc1C(=O)Nc1ccc(S(=O)(=O)Nc2nccs2)cc1` [phthalylsulfathiazole], with 0.0305.
Regarding `C[N+](C)(C)CC(=O)O` [betaine hydrochloride], the log was -0.0648.
Then `CC(C)=CCC/C(C)=C/CC/C(C)=C/CO` [farnesol], with 0.146.
Then `Cc1c(C(=O)O)c(O)cc2c1C(=O)c1c(O)c([C@@H]3O[C@H](CO)[C@@H](O)[C@H](O)[C@H]3O)c(O)c(O)c1C2=O` [carminic acid], with 0.0214.

The values above are taken from the supplement of paper PMC7024190.
